The other results are listed elsewhere or left out.
How the values were obtained:
Test in all cases: glycan array binding signal (z-score within array); higher = stronger binding
Conditions in all cases: glycan notation: IUPAC condensed, linker removed
[1] = molecular target: Gal(b1-4)GlcNAc(b1-2)Man(a1-6)[Man(a1-3)]Man(b1-4)GlcNAc(b1-4)GlcNAc
Procedure, shortened: (§1)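 Glycan array data were curated from 3228 arrays in the Consortium for Functional Glycomics database and kept only where the protein sequence was available. Glycan names were converted to IUPAC-condensed notation, and columns mapping to the same glycan were averaged. The binding signal is a within-array Z-score, averaged across arrays of the same protein sequence at different concentrations or buffers and across linkers. Negative Z-scores can be read as non-binding.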

[2] = molecular target: Gal(b1-4)GlcNAc(b1-2)[Gal(b1-4)GlcNAc(b1-4)]Man(a1-3)[Gal(b1-4)GlcNAc(b1-2)Man(a1-6)]Man(b1-4)GlcNAc(b1-4)GlcNAc
Procedure, shortened: as §1

[3] = molecular target: Gal(b1-4)GlcNAc(b1-2)[Gal(b1-4)GlcNAc(b1-4)]Man(a1-3)[Gal(b1-4)GlcNAc(b1-2)[Gal(b1-4)GlcNAc(b1-6)]Man(a1-6)]Man(b1-4)GlcNAc(b1-4)GlcNAc
Procedure, shortened: as §1

[4] = molecular target: Gal(b1-4)GlcNAc(b1-2)[Gal(b1-4)GlcNAc(b1-4)]Man(a1-3)[GlcNAc(b1-4)][Gal(b1-4)GlcNAc(b1-2)Man(a1-6)]Man(b1-4)GlcNAc(b1-4)GlcNAc
Procedure, shortened: as §1

[5] = molecular target: Gal(b1-4)GlcNAc(b1-2)[Gal(b1-4)GlcNAc(b1-4)]Man(a1-3)[GlcNAc(b1-4)][Gal(b1-4)GlcNAc(b1-2)[Gal(b1-4)GlcNAc(b1-6)]Man(a1-6)]Man(b1-4)GlcNAc(b1-4)GlcNAc
Procedure, shortened: as §1

[6] = molecular target: Gal(b1-4)GlcNAc(b1-2)[Gal(b1-4)GlcNAc(b1-6)]Man(a1-6)[Gal(b1-4)GlcNAc(b1-2)Man(a1-3)]Man(b1-4)GlcNAc(b1-4)GlcNAc
Procedure, shortened: as §1

[7] = molecular target: Gal(b1-4)GlcNAc(b1-2)[Gal(b1-4)GlcNAc(b1-6)]Man(a1-6)[Gal(b1-4)GlcNAc(b1-2)Man(a1-3)]Man(b1-4)GlcNAc(b1-4)[Fuc(a1-6)]GlcNAc
Procedure, shortened: as §1

[8] = molecular target: Gal(b1-4)GlcNAc(b1-2)[Gal(b1-4)GlcNAc(b1-6)]Man(a1-6)[GlcNAc(b1-4)][Gal(b1-4)GlcNAc(b1-2)Man(a1-3)]Man(b1-4)GlcNAc(b1-4)GlcNAc
Procedure, shortened: as §1

[9] = molecular target: Gal(b1-4)GlcNAc(b1-2)[Gal(b1-4)GlcNAc(b1-6)]Man(a1-6)[GlcNAc(b1-4)][Gal(b1-4)GlcNAc(b1-2)[Gal(b1-4)GlcNAc(b1-4)]Man(a1-3)]Man(b1-4)GlcNAc(b1-4)[Fuc(a1-6)]GlcNAc
Procedure, shortened: as §1

[10] = molecular target: Gal(b1-4)GlcNAc(b1-3)Gal(b1-3)GalNAc
Procedure, shortened: as §1

[11] = molecular target: Gal(b1-4)GlcNAc(b1-3)Gal(b1-3)GlcNAc
Procedure, shortened: as §1

[12] = molecular target: Gal(b1-4)GlcNAc(b1-3)Gal(b1-4)Glc
Procedure, shortened: as §1

[13] = molecular target: Gal(b1-4)GlcNAc(b1-3)Gal(b1-4)GlcNAc
Procedure, shortened: as §1

[14] = molecular target: Gal(b1-4)GlcNAc(b1-3)Gal(b1-4)GlcNAc(b1-2)Man(a1-3)[Gal(b1-4)GlcNAc(b1-3)Gal(b1-4)GlcNAc(b1-2)Man(a1-6)]Man(b1-4)GlcNAc(b1-4)GlcNAc
Procedure, shortened: as §1

[15] = molecular target: Gal(b1-4)GlcNAc(b1-3)Gal(b1-4)GlcNAc(b1-2)Man(a1-3)[Gal(b1-4)GlcNAc(b1-3)Gal(b1-4)GlcNAc(b1-2)Man(a1-6)]Man(b1-4)GlcNAc(b1-4)[Fuc(a1-6)]GlcNAc
Procedure, shortened: as §1

[16] = molecular target: Gal(b1-4)GlcNAc(b1-3)Gal(b1-4)GlcNAc(b1-2)[Gal(b1-4)GlcNAc(b1-3)Gal(b1-4)GlcNAc(b1-6)]Man(a1-6)[Gal(b1-4)GlcNAc(b1-3)Gal(b1-4)GlcNAc(b1-2)Man(a1-3)]Man(b1-4)GlcNAc(b1-4)GlcNAc
Procedure, shortened: as §1

[17] = molecular target: Gal(b1-4)GlcNAc(b1-3)Gal(b1-4)GlcNAc(b1-2)[Gal(b1-4)GlcNAc(b1-3)Gal(b1-4)GlcNAc(b1-6)]Man(a1-6)[Gal(b1-4)GlcNAc(b1-3)Gal(b1-4)GlcNAc(b1-2)Man(a1-3)]Man(b1-4)GlcNAc(b1-4)[Fuc(a1-6)]GlcNAc
Procedure, shortened: as §1

[18] = molecular target: Gal(b1-4)GlcNAc(b1-3)Gal(b1-4)GlcNAc(b1-3)Gal(b1-4)GlcNAc
Procedure, shortened: as §1

B1: PX9961KLbvu-535-38-535 (Bacteroides vulgatus) (protein)
chain: DKAYTDAESYTKGLHKIYSVWALSGQDGSSSSDISGLDAGNTALLRCWWTLQEQPTDEMKNAWNDAWCTEVNYMTWTTNKVEPIEGVYQRCMYIVALVNEFLKNIPNAPESIDKESYIAQARFNRAFAYYVLMDMFALPPFITEKNYSIEPAPLSREDLFNWIEAELNEIKPNLPSPRSEYGVADQAVASALLARMYLNAEIYTGKARYTECINACNEVIKAGYQLADNYADLFKADNGENPDTKKEIIYPIIFDGDKTQSWGMAAIIIGARGAEDKDVLLAHSGVDQGWAGFRATSNLVHLFDFQNDEEPKASEIQDKRGIFYDKGRSIDITSSVSGTFETEGWSVFKFSNLNSNGQPGKNTLWVDTDFPMFRLGDIYLMYAEAVARGGEGSKASAVEYINALRKRAYGDDKHNISENWLEENNFRNLLDERGRELYWEGIRRTDLVRFDLLTSGSYTWDFKGGINTGVGVNKRYNVYPIPVTDLTVNGNLQQNEGY
- glycan array binding signal (z-score) [1]: -0.969
- glycan array binding signal (z-score) [2]: 0.311
- glycan array binding signal (z-score) [3]: 0.439
- glycan array binding signal (z-score) [4]: -0.182
- glycan array binding signal (z-score) [5]: 0.311
- glycan array binding signal (z-score) [6]: -0.741
- glycan array binding signal (z-score) [7]: -0.37
- glycan array binding signal (z-score) [8]: -0.236
- glycan array binding signal (z-score) [9]: 0.616
- glycan array binding signal (z-score) [10]: -0.459
- glycan array binding signal (z-score) [11]: -0.533
- glycan array binding signal (z-score) [12]: -0.034
- glycan array binding signal (z-score) [13]: -0.347
- glycan array binding signal (z-score) [14]: 1.18
- glycan array binding signal (z-score) [15]: -0.389
- glycan array binding signal (z-score) [16]: 0.487
- glycan array binding signal (z-score) [17]: 0.642
- glycan array binding signal (z-score) [18]: -1.26

Source: the supplement of paper PMC8728848
